Source: PubChem BioAssay AID602196 (INSERM, 2012)

- Purpose: 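Modifiers of cisplatin sensitivity in A549 cells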
- System: human A549 lung cancer cells
- Reagents: siRNA pair against human genes
- Timing: 48 h transfection before cisplatin; time from cisplatin to read-out not stated
- Challenge: cisplatin at a dose killing half of control-siRNA cells; exact dose and duration not given
- Measured: 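Shift in cisplatin death relative to control siRNA, from -50 (all cells die) to +50 (no cells die); siRNAs harmful on their own scored 0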
- Direction: two-siRNA summed score (-2 to +2): higher = both siRNAs protect from cisplatin killing; -2 means both sensitise; mean protection from cisplatin (shift in death): higher = protection from cisplatin killing
- Rule for the call: 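siRNAs harmful alone (LDH or WST-1) get 0; others get +1 for less and -1 for more cisplatin killing; genes are active when the two siRNAs give the same sign, summing to ±2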
- Calls: active = both siRNAs shift cisplatin killing the same way; inactive = no consistent shift, or siRNA harmful alone
The deposit covers about 23,000 reagents; below is an unselected part. Over the whole deposit, 455 (2%) got an active call. 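Active includes both protection and sensitisation; some change values fall well beyond the stated -50 to +50 range.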 Not all columns of the deposit are shown. The record does not give: the amount of reagent.

gene,two-siRNA summed score (-2 to +2),mean protection from cisplatin (shift in death) (%),outcome
TMEM207,0,3.3,inactive
TTLL6,-1,-16.5,inactive
XBP1,0,6.2,inactive
GMFB,0,-3.2,inactive
RPS13,0,25,inactive
LOC254808,0,-2.2,inactive
RAB44,0,5.5,inactive
LOC441569,0,4.1,inactive
NKTR,0,-7.4,inactive
LOC389228,0,-1.5,inactive
LOC441311,0,-1.9,inactive
RRP12,1,7.4,inactive
H2AC18,0,5.9,inactive
TMX2,-1,-5.4,inactive
TTC39C,0,-5.3,inactive
HCN2,0,-2.9,inactive
LOC400768 (retired record),1,3,inactive
ZNF574,0,1.5,inactive
LOC440559,1,9.2,inactive
LOC390811,1,4.8,inactive
LOC441773,0,0.3,inactive
ZNF821,0,-2.8,inactive
CPSF6,-1,-4.1,inactive
RBBP4,0,10.7,inactive
LOC388755,0,9.4,inactive
UNC5CL,0,5.5,inactive
LOC284591,0,5.6,inactive
EIF4A2P4,0,13.4,inactive
PHAX,0,6,inactive
LOC388397,0,15.3,inactive
SHC2,0,0.4,inactive
GTF3C3,0,1.8,inactive
PTPRZ1,0,7.9,inactive
ST8SIA3,0,2,inactive
LOC256283,0,9.2,inactive
ZBTB16,-1,-9.5,inactive
PSMG2,0,9.9,inactive
LYPLA2,0,0.3,inactive
LOC442275,0,9.8,inactive
LOC389771,0,6.3,inactive
SHLD1,0,-9.1,inactive
C19orf84,0,2.9,inactive
SPINK13,0,1.1,inactive
OGFOD2,0,-6.2,inactive
LOC441759,1,42.5,inactive
PXDC1,0,7,inactive
LOC441467,1,2.9,inactive
ZNF713,1,5.4,inactive
TMEM143,0,-1.6,inactive
TDO2,-1,-10.3,inactive
COX4I2,0,0.3,inactive
GLI2,0,-8.2,inactive
MSH3,0,8.4,inactive
COMMD1,0,-10,inactive
YTHDC2,0,0.4,inactive
LOC440818,0,5.8,inactive
LOC389440,0,1.9,inactive

Only “two-siRNA summed score (-2 to +2)” (5 entries from above):
LOC284591 = 0
EIF4A2P4 = 0
PHAX = 0
LOC388397 = 0
SHC2 = 0
